PubChem BioAssay AID1259254 – NCATS, 2017
Here is an unselected part of about 59,000 reagents. Of all reagents, about 1,550 (2.6%) were called active. 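G2 share is only a proxy for re-replication; each gene was hit by three separate siRNAs, and active genes were retested.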 Raw values are not corrected between plates. Reagents against one gene are numbered here. Not stated in the record: the amount of reagent.

Assay: 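Gene knock-downs that lead to re-replication, shown by excess G2 DNA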 (primary screen)
Cell system: human HCT116 colorectal cancer cells
Reagent: single siRNA against human genes
Duration: 3 days
Detection: 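Imaged Hoechst DNA stain sorts each cell into a cycle phase by DNA amount; per plate, G2 fraction set to 0% for non-targeting and 100% for GMNN siRNA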
Scale: G2 robust z-score and G2 cells, % of GMNN control: higher = more G2 cells, more excess DNA replication; raw share of cells in G2: higher = larger share of cells with G2 DNA content
Rule for the call: 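An siRNA counts as active if its G2 robust z-score lies at least 5 MADs above the screen median; here such calls match roughly 38% of GMNN control or more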

gene | reagent | G2 robust z-score | G2 cells, % of GMNN control | raw share of cells in G2 (%) | outcome
APEX1 | 1 | 0.773 | 8.4 | 7.58 | inactive
APEX1 | 2 | 2.7 | 22 | 12.9 | inactive
APEX1 | 3 | 1.56 | 13.9 | 9.18 | inactive
JAM3 | 1 | 0.177 | 4.21 | 5.51 | inactive
JAM3 | 2 | 4.8 | 36.7 | 14.3 | inactive
JAM3 | 3 | -0.461 | -0.273 | 2.32 | inactive
CCL13 | 1 | 0.464 | 6.23 | 6.02 | inactive
CCL13 | 2 | -0.12 | 2.12 | 6.4 | inactive
CCL13 | 3 | 0.164 | 4.12 | 5.96 | inactive
MEF2D | 1 | -1.14 | -5.07 | 1.52 | inactive
MEF2D | 2 | 0.183 | 4.25 | 7 | inactive
MEF2D | 3 | -1.38 | -6.76 | 2.79 | inactive
UNC119 | 1 | 2.8 | 22.7 | 13.2 | inactive
UNC119 | 2 | 0.0196 | 3.11 | 5.95 | inactive
UNC119 | 3 | -0.438 | -0.112 | 4.67 | inactive
SLC39A10 | 1 | -0.744 | -2.27 | 3.45 | inactive
SLC39A10 | 2 | 0.956 | 9.69 | 9.09 | inactive
SLC39A10 | 3 | 0.317 | 5.2 | 4.68 | inactive

Next part, starting with the last 2 of the part before.
gene | reagent | G2 robust z-score | G2 cells, % of GMNN control | raw share of cells in G2 (%) | outcome
SLC39A10 | 2 | 0.956 | 9.69 | 9.09 | inactive
SLC39A10 | 3 | 0.317 | 5.2 | 4.68 | inactive
C2orf81 | 1 | -1.12 | -4.91 | 2.09 | inactive
C2orf81 | 2 | -0.737 | -2.22 | 2.44 | inactive
C2orf81 | 3 | -0.074 | 2.45 | 5.68 | inactive
TAF11L1 | 1 | -0.527 | -0.739 | 3.37 | inactive
TAF11L1 | 2 | -0.892 | -3.31 | 1.76 | inactive
TAF11L1 | 3 | -0.412 | 0.0669 | 3.29 | inactive
ZNF821 | 1 | -1.29 | -6.12 | 2.17 | inactive
ZNF821 | 2 | -0.103 | 2.24 | 5.07 | inactive
ZNF821 | 3 | -0.786 | -2.56 | 2.32 | inactive
CD22 | 1 | -0.615 | -1.36 | 3.63 | inactive
CD22 | 2 | 0.195 | 4.34 | 6.51 | inactive
CD22 | 3 | 1.22 | 11.6 | 9.22 | inactive
